Assay results from PubChem BioAssay AID504834 (National Center for Advancing Translational Sciences (NCATS), 2011).
Among all 320,000 compounds or so, about 22,000 (6.9%) were called active. Inconclusive results, whose numbers are uncertain, are shown with a selection of clear calls. Calls come from the whole dose curve; as a rule, active = well fitted inhibition curve with a large enough effect; inconclusive = small, poorly fitted or top-dose-only effect, or another doubt; inactive = no such curve, though single readings can be large or run the other way. Potencies beside an inconclusive call are fits to weak or partial responses and may not hold up.

Experiment: Primary qHTS for delayed death inhibitors of the malarial parasite plastid, 96 hour incubation
Details: P. falciparum luciferase reporter growth; series mostly up to 28.7 µM; activity change, negative = inhibition: at the top concentration
Method in brief: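 Parasite growth measured via integrated firefly luciferase reporter in P. falciparum. Infected erythrocytes at 2% hematocrit, 0.05% parasitemia final were treated 96 hours at 37 C under 5% CO2, and luminescence was read.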
% is set by controls: 0 for no effect and ±100 for the full control effect; potency is the fitted concentration of half-maximal effect.

Row | SMILES | Potency | activity change, negative = inhibition
1 | COC(=O)c1ccc(CSc2nc3sc4c(c3c(=O)n2C)CCCC4)o1 | inconclusive: 18.5 µM [inhibitor, single point] | 
2 | CCOC(=O)C1=C(C)N=c2s/c(=C\c3ccc(OC(C)=O)cc3)c(=O)n2C1/C=C/c1ccccc1 (centres undefined) | inconclusive: 18.5 µM [inhibitor, single point] | 
3 | CSCC[C@H](NC(=O)NCc1ccc(F)cc1)C(=O)O |  | inactive: -3.88%
4 | Cc1cc(C(=O)Nc2cc(C)on2)on1 | inconclusive: 10.4 µM [inhibitor, single point] | 
5 | COc1ccc(N2C(=O)CC(N3CCC(c4nc5ccccc5[nH]4)CC3)C2=O)cc1 (centres undefined) | inconclusive: 4.15 µM [inhibitor, partial curve, poor fit] | 
6 | CCOc1cc(C2C3=C(CC(C)(C)CC3=O)N(CCCOC)C3=C2C(=O)CC(C)(C)C3)ccc1O | inconclusive: 0.738 µM [inhibitor, full curve, poor fit] | 
7 | COc1cc(OC)cc(-c2nc(-c3ccc(Br)cc3)no2)c1 | inconclusive: 1.04 µM [inhibitor, partial curve, poor fit] | 
8 | CCN1CCN(C2=C(NS(=O)(=O)c3ccc(NC(C)=O)cc3)C(=O)c3ccccc3C2=O)CC1 | active: 10.4 µM | 
9 | Cc1c(C#N)c2ccccc2n1CC(=O)O |  | inactive: -28.8%
10 | COc1cc(C(=O)NC(C)c2ccccc2)ccc1OCC(=O)N1CCOCC1 (centres undefined) | inconclusive: 0.828 µM [inhibitor, full curve] | 
11 | C/C(=N\S(=O)(=O)c1ccc(C)cc1)N1CCCCC1 | active: 11.7 µM | 
12 | Cc1cc(NC(=O)CN2C(=O)c3ccccc3S2(=O)=O)no1 | inconclusive: 9.28 µM [inhibitor, partial curve, poor fit] | 
13 | Cc1cc(=O)[nH]c(SCC(=O)Nc2cc(S(=O)(=O)N3CCCC3)ccc2Cl)n1 |  | inactive: -9.41%
14 | O=C(NCC(=O)c1ccccc1)OCc1ccc([N+](=O)[O-])cc1 | active: 13.1 µM | 
15 | Cc1ccc(OCC(=O)NCC(=O)Nc2ccc(F)cc2)c([N+](=O)[O-])n1 |  | inactive: 77.5%
16 | CN(C)S(=O)(=O)NCc1ccc2c(c1)OCO2 | inconclusive: 0.0738 µM [inhibitor, full curve, poor fit] | 
17 | O=C(CN1c2ccccc2S(=O)(=O)c2ccccc21)NCc1ccc(F)cc1 | inconclusive: 18.5 µM [inhibitor, single point] | 
18 | CC(C)N(CCc1ccncc1)C(=S)Nc1ccc(F)c(Cl)c1 | inconclusive: 10.4 µM [inhibitor, partial curve, poor fit] | 
19 | CCOC(=O)c1c(C)nc2c(c1C)/C(=N/O)CC(C)(C)C2 | inconclusive: 18.5 µM [inhibitor, single point] | 
20 | CCOC(=O)c1cc(C#N)c(N2CCN(C)CC2)nc1-c1ccccc1 | inconclusive: 0.928 µM [inhibitor, partial curve, poor fit] | 
21 | CCc1cc(CNC(=O)c2ccc(OC3CCN(CCc4ccccc4)CC3)cc2)on1 | inconclusive: 13.1 µM [inhibitor, single point] | 
22 | O=[N+]([O-])c1cc(Cl)ccc1N1CCN(c2ccccc2O)CC1 | inconclusive: 14.7 µM [inhibitor, single point] | 
23 | CC1(c2ccc3ccccc3c2)NC(=O)N(CC(=O)Nc2cccc(S(=O)(=O)N3CCOCC3)c2)C1=O (centres undefined) | inconclusive: 18.5 µM [inhibitor, single point] | 

Some of the entries so far, as a markdown table:

| Row | SMILES | Potency | activity change, negative = inhibition |
| --- | --- | --- | --- |
| 4 | Cc1cc(C(=O)Nc2cc(C)on2)on1 | inconclusive: 10.4 µM [inhibitor, single point] |  |
| 6 | CCOc1cc(C2C3=C(CC(C)(C)CC3=O)N(CCCOC)C3=C2C(=O)CC(C)(C)C3)ccc1O | inconclusive: 0.738 µM [inhibitor, full curve, poor fit] |  |
| 23 | CC1(c2ccc3ccccc3c2)NC(=O)N(CC(=O)Nc2cccc(S(=O)(=O)N3CCOCC3)c2)C1=O (centres undefined) | inconclusive: 18.5 µM [inhibitor, single point] |  |

(further entries)

Row | SMILES | Potency | activity change, negative = inhibition
24 | O=C(COC(=O)/C=C/c1ccc(F)cc1)NCc1cccs1 |  | inactive: 26%
25 | CCOc1ccccc1N(C(=O)Nc1cccc(Cl)c1)C1=NC(C)CS1 (centres undefined) | inconclusive: 0.0738 µM [inhibitor, full curve, poor fit] | 
26 | Cc1cc(C)c(NC2=NCCCS2)c(C)c1 | inconclusive: 9.28 µM [inhibitor, single point] | 
27 | Cc1ccc(NC(=O)CSc2nc3[nH]c(=O)cc(O)c3s2)c(Br)c1 | inconclusive: 11.7 µM [inhibitor, single point] | 
28 | CCCOc1ccc(CCN2CCC(=O)NC2=O)cc1C | inconclusive: 8.28 µM [inhibitor, single point] | 
29 | O=C(CSc1nnc(NCc2ccccc2)s1)c1ccco1 | inconclusive: 11.7 µM [inhibitor, single point] | 
30 | CCC(=O)c1ccc(N2CCCCC2)c(F)c1 | active: 8.28 µM | 
31 | Oc1cc2c(cc1CN1CCN(c3ccccc3F)CC1)OCO2 | inconclusive: 18.5 µM [inhibitor, single point] | 
32 | O=S(=O)(NCCc1c[nH]c2ccccc12)c1ccccc1 | inconclusive: 2.62 µM [inhibitor, partial curve, poor fit] | 
33 | CSc1nc2ccc(Br)cc2[nH]1 | inconclusive: 18.5 µM [inhibitor, single point] | 
34 | CC1CCCCC1NC(=O)CCn1c(=O)sc2ccccc21 (centres undefined) | inconclusive: 11.7 µM [inhibitor, single point] | 
35 | COc1ccccc1-c1nc2c(c(SCC(=O)N3CCCCC3)n1)Cc1c(CO)cnc(C)c1O2 | active: 1.65 µM | 
36 | COc1ccc(C)cc1NC(=O)c1cc(S(=O)(=O)N2CCCCC2)ccc1N1CCOCC1 | inconclusive: 8.28 µM [inhibitor, partial curve, poor fit] | 
37 | CCOCCCNc1nc2c(C)cccn2c(=O)c1/C=C1\SC(=S)N(C(C)CC)C1=O (centres undefined) | inconclusive: 0.37 µM [inhibitor, partial curve, poor fit] | 
38 | COc1cccc(N2CCN(C(=O)CSc3ccc(F)cc3)CC2)c1 |  | inactive: -4.93%
39 | COc1cc2cc(CN(CCc3cccc(C)c3)C(=S)NCCCN(C)C)c(=O)[nH]c2cc1OC |  | inactive: 31.8%
40 | O=C(NCCOC(=O)c1ccccc1)c1ccccc1 | inconclusive: 0.0522 µM [inhibitor, full curve, poor fit] | 
41 | Nc1ccc(-c2cc3ccccc3oc2=O)cc1 | inconclusive: 11.7 µM [inhibitor, single point] | 
42 | Clc1cccc(-c2nnc(SC/C=C/c3ccccc3)n2Cc2ccco2)c1 | inconclusive: 10.4 µM [inhibitor, single point] | 
43 | COc1ccc(S(=O)(=O)N2CCCC2CNC(=O)C(=O)Nc2ccc(C)cc2)cc1 (centres undefined) | inconclusive: 10.4 µM [inhibitor, single point] | 
44 | O=C(O)/C=C/C(=O)Nc1nccs1 | inconclusive: 9.28 µM [inhibitor, partial curve, poor fit] | 
45 | CCCNC(=O)CSc1nc(-c2cccs2)cc(C(F)(F)F)n1 | active: 8.28 µM | 
46 | O=C(COc1ccccc1)N1CCN(C(=O)c2ccc([N+](=O)[O-])cc2)CC1 |  | inactive: 52.8%

Row | SMILES | Potency | activity change, negative = inhibition
47 | CCOC(=O)c1ccc(Nc2c(OCC)c(=O)c2=O)cc1 | inconclusive: 5.22 µM [inhibitor, partial curve] | 
48 | CCC(C)NC(=O)CSc1ccc(Cl)cc1 (centres undefined) | active: 3.29 µM | 
49 | O=C(O)c1ccc(Br)cn1 |  | inactive: 1.5%
50 | CCn1c2ccccc2c2cc(NC(=O)Nc3ccc([N+](=O)[O-])cc3C)ccc21 | inconclusive: 18.5 µM [inhibitor, single point] | 
51 | CCNS(=O)(=O)c1ccc(CCC(=O)N2CCN(c3cc(Cl)ccc3C)CC2)cc1 | inconclusive: 18.5 µM [inhibitor, single point] | 
52 | Cc1ccsc1/C=C\C1=NCCCN1C |  | inactive: -14.7% [at 12.8 µM]
53 | O=C(COc1ccc(Cl)cc1Cl)Nc1ccc2nc3n(c(=O)c2c1)CCCC3 | inconclusive: 10.4 µM [inhibitor, single point] | 
54 | COc1cc(/C=N/NC(=O)CCN2CCN(Cc3ccccc3)CC2)cc(OC)c1OC | inconclusive: 18.5 µM [inhibitor, single point] | 
55 | Cc1nc(-c2ccc(Cl)cc2)sc1C1(C)CC(c2ccc([N+](=O)[O-])cc2)=NO1 (centres undefined) |  | inactive: 16.5%
56 | CCN1CCN(c2ccc(NC(C)=O)cc2Cl)CC1 | inconclusive: 18.5 µM [inhibitor, partial curve, poor fit] | 
57 | Cc1ccc(C(=O)N/C(=C/c2ccco2)C(=O)N2CCC(C)CC2)cc1 | inconclusive: 1.65 µM [inhibitor, full curve] | 
58 | c1cncc(-c2nc3cc(Cc4ccc5oc(-c6cccnc6)nc5c4)ccc3o2)c1 | inconclusive: 18.5 µM [inhibitor, single point] | 
59 | CC(C)c1ccc(OCc2ccc(C(=O)NN3CCN(C)CC3)o2)cc1 | inconclusive: 18.5 µM [inhibitor, single point] | 
60 | COc1ccc(-c2noc(N3CCC(C(=O)N4CCN(c5ccccn5)CC4)CC3)n2)cc1 | inconclusive: 0.294 µM [inhibitor, full curve, poor fit] | 
61 | O=C(c1cc([N+](=O)[O-])ccc1N1CCCCC1)N1CCCC1 | active: 7.38 µM | 
62 | CC1=Nc2ccccc2/C1=C\c1sc(Nc2ccc(C)cc2)nc1O | active: 6.57 µM | 
63 | COCc1c(C(=O)NCc2ccccc2CN2CCCC2)oc2ccccc12 | active: 9.28 µM | 
64 | CC1(C)Cc2ccccc2-c2nnc(-c3ccc4ccccc4n3)n21 | inconclusive: 18.5 µM [inhibitor, single point] | 
65 | COc1ccccc1C(=O)Nc1nnc(-c2ccc(F)cc2)s1 | inconclusive: 18.5 µM [inhibitor, single point] | 
66 | O=C(COC(=O)CNC(=O)C1CCCCC1)Nc1ccc(Cl)cn1 | inconclusive: 0.165 µM [inhibitor, full curve] | 
67 | Oc1ccc2[nH]cnc2c1CN1CCCCC1 | inconclusive: 14.7 µM [inhibitor, single point] | 
68 | CCC(=O)n1nc(-c2cccnc2)nc1NCc1ccc(F)cc1 | inconclusive: 18.5 µM [inhibitor, single point] | 
69 | CC(C)(C)c1ccc(-c2nnc(SCC(=O)O)n2N)cc1 |  | inactive: -10.8%
